Assay results from US8895499B2 (Polyphor AG, priority 2010, dated 2014).
HELM strings list residues between dots; [ac] is acetyl, [am] amide, other brackets name non-standard units.

Experiment: general procedure: Fmoc solid-phase peptide synthesis; Fmoc-Pro-O-chlorotrityl resin
Settings: whole synthesis
In the case of “PEPTIDE1{W.R.I.R.I.[dR].T.Q.R.L.Q.A.[dP].P}$PEPTIDE1,PEPTIDE1,1:R1-14:R2$$$V2.0”, the “final purity (method not given)” value is reported as 94%.
For “PEPTIDE1{W.R.I.R.I.[dR].N.H.R.N.R.R.[dP].P}$PEPTIDE1,PEPTIDE1,1:R1-14:R2$$$V2.0”, the “final purity (method not given)” value was 94%.
For “PEPTIDE1{W.R.I.R.I.[Dab].N.Q.R.L.Q.A.[dP].P}$PEPTIDE1,PEPTIDE1,1:R1-14:R2$$$V2.0”, the “final purity (method not given)” value was 92%.
For “PEPTIDE1{W.R.I.[Orn].I.[dR].N.Q.R.L.Q.A.[dP].P}$PEPTIDE1,PEPTIDE1,1:R1-14:R2$$$V2.0”, the “final purity (method not given)” value was 97%.
For “PEPTIDE1{W.[Dab].I.R.I.[dR].N.Q.R.L.Q.A.[dP].P}$PEPTIDE1,PEPTIDE1,1:R1-14:R2$$$V2.0”, the “final purity (method not given)” value was 97%.
In the case of “PEPTIDE1{W.R.I.R.I.[dR].N.K.R.N.R.A.[dP].P}$PEPTIDE1,PEPTIDE1,1:R1-14:R2$$$V2.0”, the “final purity (method not given)” value is reported as 95%.
With “PEPTIDE1{W.R.I.R.I.[dR].N.Q.R.Y.Q.A.[dP].P}$PEPTIDE1,PEPTIDE1,1:R1-14:R2$$$V2.0” the “final purity (method not given)” value was 94%.
With “PEPTIDE1{W.R.I.R.I.[dR].Y.Q.R.L.Q.A.[dP].P}$PEPTIDE1,PEPTIDE1,1:R1-14:R2$$$V2.0” the “final purity (method not given)” value was 97%.
For “PEPTIDE1{W.R.I.R.I.[D-Dab].N.W.[Dab].N.R.[Dab].[dP].P}$PEPTIDE1,PEPTIDE1,1:R1-14:R2$$$V2.0”, the “final purity (method not given)” value was 95%.
For “PEPTIDE1{W.R.I.R.I.[dR].Q.Q.R.L.Q.A.[dP].P}$PEPTIDE1,PEPTIDE1,1:R1-14:R2$$$V2.0”, the “final purity (method not given)” value was 97%.
In the case of “PEPTIDE1{W.R.I.R.I.[dR].N.K.[Dab].L.R.R.[dP].P}$PEPTIDE1,PEPTIDE1,1:R1-14:R2$$$V2.0”, the “final purity (method not given)” value is reported as 94%.
In the case of “PEPTIDE1{W.R.I.R.I.[dR].N.Q.R.W.Q.A.[dP].P}$PEPTIDE1,PEPTIDE1,1:R1-14:R2$$$V2.0”, the “final purity (method not given)” value is reported as 94%.
For “PEPTIDE1{W.R.I.R.I.[dR].L.Q.R.L.Q.A.[dP].P}$PEPTIDE1,PEPTIDE1,1:R1-14:R2$$$V2.0”, the “final purity (method not given)” value was 97%.
For “PEPTIDE1{W.R.I.R.I.[dR].N.Q.R.[Cha].Q.A.[dP].P}$PEPTIDE1,PEPTIDE1,1:R1-14:R2$$$V2.0”, the “final purity (method not given)” value was 92%.
With “PEPTIDE1{W.R.I.R.I.[dR].N.K.R.L.R.Q.[dP].P}$PEPTIDE1,PEPTIDE1,1:R1-14:R2$$$V2.0” the “final purity (method not given)” value was 90%.
For “PEPTIDE1{W.[Orn].I.R.I.[dR].N.Q.R.L.Q.A.[dP].P}$PEPTIDE1,PEPTIDE1,1:R1-14:R2$$$V2.0”, the “final purity (method not given)” value was 97%.
For “PEPTIDE1{W.R.I.R.I.[Orn].N.Q.R.L.Q.A.[dP].P}$PEPTIDE1,PEPTIDE1,1:R1-14:R2$$$V2.0”, the “final purity (method not given)” value was 95%.
In the case of “PEPTIDE1{W.R.I.[Dab].I.[dR].N.Q.R.L.Q.A.[dP].P}$PEPTIDE1,PEPTIDE1,1:R1-14:R2$$$V2.0”, the “final purity (method not given)” value is reported as 97%.
